Source: patent publication US8871735B2, “Methods and compositions for providing cardiac protection” (University of Medicine and Dentistry of New Jersey, priority 2008, dated 2014)
The structures given here were assigned with low confidence; some may be wrong.

System: H9C2 cells
Assay: cAMP accumulation in H9C2 cells
Assay type: cell-based
Details: 5 μM ISO, 3 minutes, 10 μM drug
Protocol: […] Cells were stimulated with 5 μM isoproterenol (ISO), a β-AR agonist, for 3 minutes in the presence or absence of the indicated drugs (10 μM). Ara-Ade (Adenine 9-β-D-arabinofuranoside) is an anti-herpes simplex drug. Fludarabine ((+)-2-Fluoro-9-(5-O-phosphono-β-D-arabinofuranosyl)-9H-purin-6-amine) and Cladribine (2-chloro-2′-deoxyadenosine) are anti-cancer drugs, Adefovir (Bis(2,2-dimethylpropanoyloxymethyl)[2-(6-amino-9H-purin-9-yl)ethoxymethyl]phosphonate) and Zidovudine are anti-HIV drugs. Zidovudine-TP is a metabolite of zidovudine which inhibits virus replication. TP; triphosphate. 3-Deazaadenosine, Formycin A (7-Amino-3-(β-D-ribofuranosyl)-1H-pyrazolo[4,3-d]pyrimidine), 2-Far (2-Fluoroadenosine), formycin A ((2S,3R,4S,5R)-2-(7-amino-2H-pyrazolo[5,4-e]pyramidin-3-yl-5-(hydroxymeth-yl)oxolane-3,4-diol), 2-FD (2-Fluoro-2′-deoxyadenosine) and 2′5′ ddAdo (2′5′-dideoxyadenosine) are experimental drugs.
Mice were anesthetized with 2.5% tribromoethanol (0.010 to 0.015 mL per gram of body weight) injected intraperitoneally, and echocardiography was performed with ultrasonography (ACUSON Sequoia C256, Siemens Medical Solutions, Malvern, Pa.). […]

## Nc1ncnc2c1ncn2C1CCC(C(=O)NO)C1 (stereo not shown) [PMC-6]
  inhibition of cAMP accumulation in H9C2 cells: inhibited cAMP accumulation
